The text below walks through data of the supplement of paper PMC10849652.

Sequences of proteins named here, by UniProt entry; tags and fusion partners are left off. A change or cut given only in a name is not applied to a line headed by its entry.
UniProt P09661: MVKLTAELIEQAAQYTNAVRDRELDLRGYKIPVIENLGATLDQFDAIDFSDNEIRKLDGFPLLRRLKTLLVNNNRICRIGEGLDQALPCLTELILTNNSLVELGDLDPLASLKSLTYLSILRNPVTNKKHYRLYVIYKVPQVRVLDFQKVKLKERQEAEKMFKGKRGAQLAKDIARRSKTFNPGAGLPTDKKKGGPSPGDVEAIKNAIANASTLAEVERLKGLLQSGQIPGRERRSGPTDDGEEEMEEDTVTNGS
UniProt O14508, whole entry, looked up: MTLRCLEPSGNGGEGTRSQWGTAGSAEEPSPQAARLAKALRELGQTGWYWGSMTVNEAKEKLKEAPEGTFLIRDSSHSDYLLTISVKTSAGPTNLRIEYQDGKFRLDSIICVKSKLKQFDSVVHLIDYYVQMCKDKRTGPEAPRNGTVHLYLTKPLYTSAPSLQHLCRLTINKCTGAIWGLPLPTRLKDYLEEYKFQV
UniProt P62306, whole entry, looked up: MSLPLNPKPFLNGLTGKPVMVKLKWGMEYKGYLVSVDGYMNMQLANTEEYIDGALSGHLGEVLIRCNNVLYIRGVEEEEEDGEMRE
UniProt P55769: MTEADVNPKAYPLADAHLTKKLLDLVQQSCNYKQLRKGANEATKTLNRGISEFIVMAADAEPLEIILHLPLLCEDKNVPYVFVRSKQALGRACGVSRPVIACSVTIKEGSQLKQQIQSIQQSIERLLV
UniProt Q9H7B4: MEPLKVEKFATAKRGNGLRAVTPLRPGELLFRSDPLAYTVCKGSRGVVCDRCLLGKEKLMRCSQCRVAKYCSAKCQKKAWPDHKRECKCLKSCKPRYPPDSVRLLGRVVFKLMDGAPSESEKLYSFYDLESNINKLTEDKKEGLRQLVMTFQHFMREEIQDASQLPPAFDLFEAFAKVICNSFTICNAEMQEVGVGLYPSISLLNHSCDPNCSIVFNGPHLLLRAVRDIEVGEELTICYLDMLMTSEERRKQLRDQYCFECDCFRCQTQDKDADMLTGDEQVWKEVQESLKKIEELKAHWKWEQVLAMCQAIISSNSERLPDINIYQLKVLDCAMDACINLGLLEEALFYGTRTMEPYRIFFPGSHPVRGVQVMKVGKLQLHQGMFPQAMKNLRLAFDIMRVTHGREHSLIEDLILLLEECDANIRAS
UniProt Q96DI7: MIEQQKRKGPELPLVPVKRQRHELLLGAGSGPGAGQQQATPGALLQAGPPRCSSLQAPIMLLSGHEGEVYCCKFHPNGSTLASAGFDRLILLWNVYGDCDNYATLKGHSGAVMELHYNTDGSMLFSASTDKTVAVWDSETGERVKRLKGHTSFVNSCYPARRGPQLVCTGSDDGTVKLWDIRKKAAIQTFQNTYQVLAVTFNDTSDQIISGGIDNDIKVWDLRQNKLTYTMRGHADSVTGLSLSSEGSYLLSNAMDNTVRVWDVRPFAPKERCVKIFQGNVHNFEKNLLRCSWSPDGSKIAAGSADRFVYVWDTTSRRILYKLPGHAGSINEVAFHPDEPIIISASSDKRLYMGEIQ
UniProt O94964: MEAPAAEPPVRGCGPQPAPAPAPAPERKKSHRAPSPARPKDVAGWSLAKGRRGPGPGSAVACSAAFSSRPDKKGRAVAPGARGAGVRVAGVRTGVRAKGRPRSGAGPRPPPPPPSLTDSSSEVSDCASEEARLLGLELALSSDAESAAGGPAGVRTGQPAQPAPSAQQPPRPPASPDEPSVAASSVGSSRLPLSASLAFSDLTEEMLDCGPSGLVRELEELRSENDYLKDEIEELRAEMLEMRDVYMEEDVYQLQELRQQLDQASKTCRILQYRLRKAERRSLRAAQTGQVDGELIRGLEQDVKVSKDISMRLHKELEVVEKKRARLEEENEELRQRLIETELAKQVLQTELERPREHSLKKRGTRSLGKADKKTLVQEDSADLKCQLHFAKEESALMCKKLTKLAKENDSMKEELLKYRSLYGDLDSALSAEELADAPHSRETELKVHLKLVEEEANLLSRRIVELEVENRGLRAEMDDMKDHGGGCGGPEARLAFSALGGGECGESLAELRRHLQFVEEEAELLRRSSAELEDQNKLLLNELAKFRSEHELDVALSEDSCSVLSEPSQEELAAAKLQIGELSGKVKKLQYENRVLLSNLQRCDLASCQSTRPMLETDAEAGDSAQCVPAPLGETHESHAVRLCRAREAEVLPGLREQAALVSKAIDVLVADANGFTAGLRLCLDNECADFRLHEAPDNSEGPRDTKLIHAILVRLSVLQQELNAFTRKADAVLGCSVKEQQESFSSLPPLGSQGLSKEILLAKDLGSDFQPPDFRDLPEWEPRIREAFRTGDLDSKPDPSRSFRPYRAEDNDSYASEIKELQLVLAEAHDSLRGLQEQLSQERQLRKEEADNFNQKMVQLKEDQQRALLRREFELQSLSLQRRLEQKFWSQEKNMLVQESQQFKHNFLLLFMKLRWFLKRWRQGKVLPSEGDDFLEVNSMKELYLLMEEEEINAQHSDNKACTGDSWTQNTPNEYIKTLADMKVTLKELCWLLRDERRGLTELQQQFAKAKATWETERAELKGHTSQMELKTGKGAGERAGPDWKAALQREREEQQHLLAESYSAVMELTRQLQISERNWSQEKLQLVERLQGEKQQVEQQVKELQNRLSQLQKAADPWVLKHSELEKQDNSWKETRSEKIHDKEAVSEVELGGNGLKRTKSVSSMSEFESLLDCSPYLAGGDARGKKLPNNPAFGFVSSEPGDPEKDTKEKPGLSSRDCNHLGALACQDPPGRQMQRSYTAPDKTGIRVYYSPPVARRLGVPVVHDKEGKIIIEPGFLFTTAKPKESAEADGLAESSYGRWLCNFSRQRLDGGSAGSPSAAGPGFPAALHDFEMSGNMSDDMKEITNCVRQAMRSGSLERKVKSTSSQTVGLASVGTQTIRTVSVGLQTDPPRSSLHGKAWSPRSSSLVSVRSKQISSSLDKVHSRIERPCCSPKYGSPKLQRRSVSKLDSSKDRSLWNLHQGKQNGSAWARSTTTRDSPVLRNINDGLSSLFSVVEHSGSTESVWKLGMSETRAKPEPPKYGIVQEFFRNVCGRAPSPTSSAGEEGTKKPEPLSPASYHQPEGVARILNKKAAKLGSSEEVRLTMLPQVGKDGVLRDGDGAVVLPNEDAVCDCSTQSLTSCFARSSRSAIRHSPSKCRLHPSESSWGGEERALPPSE
UniProt Q13596, whole entry, looked up: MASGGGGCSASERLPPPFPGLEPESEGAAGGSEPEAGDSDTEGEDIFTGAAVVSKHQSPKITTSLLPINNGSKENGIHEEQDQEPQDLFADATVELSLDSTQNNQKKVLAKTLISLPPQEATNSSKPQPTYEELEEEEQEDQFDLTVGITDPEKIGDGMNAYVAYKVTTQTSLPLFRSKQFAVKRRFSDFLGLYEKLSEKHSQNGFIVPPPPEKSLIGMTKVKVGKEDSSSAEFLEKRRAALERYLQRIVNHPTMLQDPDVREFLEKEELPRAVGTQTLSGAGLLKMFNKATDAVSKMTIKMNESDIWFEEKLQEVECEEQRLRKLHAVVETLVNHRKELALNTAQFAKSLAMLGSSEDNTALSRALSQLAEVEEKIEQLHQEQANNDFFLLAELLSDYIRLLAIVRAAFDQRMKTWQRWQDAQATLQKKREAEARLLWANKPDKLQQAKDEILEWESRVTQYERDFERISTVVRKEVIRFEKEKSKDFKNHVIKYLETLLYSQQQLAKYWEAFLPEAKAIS
UniProt P08047, whole entry, looked up: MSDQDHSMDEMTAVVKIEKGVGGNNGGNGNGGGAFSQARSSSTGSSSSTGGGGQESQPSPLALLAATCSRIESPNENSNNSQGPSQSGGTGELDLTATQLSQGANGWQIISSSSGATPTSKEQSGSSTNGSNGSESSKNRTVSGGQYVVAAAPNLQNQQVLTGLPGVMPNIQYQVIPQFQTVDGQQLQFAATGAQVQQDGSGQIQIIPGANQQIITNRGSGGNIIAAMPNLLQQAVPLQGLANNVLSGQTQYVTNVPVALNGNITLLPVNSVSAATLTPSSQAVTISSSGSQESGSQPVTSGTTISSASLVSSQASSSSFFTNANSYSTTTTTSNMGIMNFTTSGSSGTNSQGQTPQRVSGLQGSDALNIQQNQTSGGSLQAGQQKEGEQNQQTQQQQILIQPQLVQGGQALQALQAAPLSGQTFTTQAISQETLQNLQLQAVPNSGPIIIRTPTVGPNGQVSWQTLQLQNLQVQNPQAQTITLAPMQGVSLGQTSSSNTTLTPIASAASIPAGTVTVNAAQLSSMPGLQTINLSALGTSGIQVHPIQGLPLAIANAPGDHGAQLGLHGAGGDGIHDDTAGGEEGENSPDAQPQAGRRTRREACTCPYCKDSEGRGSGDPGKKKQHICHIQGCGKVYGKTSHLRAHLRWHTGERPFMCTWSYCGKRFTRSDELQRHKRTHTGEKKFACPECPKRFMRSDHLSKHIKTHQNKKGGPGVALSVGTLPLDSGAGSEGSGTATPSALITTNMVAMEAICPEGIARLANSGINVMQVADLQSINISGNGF
UniProt O00161: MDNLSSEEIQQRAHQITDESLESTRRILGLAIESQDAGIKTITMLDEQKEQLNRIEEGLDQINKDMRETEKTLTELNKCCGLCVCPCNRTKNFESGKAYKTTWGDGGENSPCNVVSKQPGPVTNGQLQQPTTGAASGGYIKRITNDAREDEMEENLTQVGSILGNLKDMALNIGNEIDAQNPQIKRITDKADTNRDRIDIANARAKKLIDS
UniProt Q9NRG4: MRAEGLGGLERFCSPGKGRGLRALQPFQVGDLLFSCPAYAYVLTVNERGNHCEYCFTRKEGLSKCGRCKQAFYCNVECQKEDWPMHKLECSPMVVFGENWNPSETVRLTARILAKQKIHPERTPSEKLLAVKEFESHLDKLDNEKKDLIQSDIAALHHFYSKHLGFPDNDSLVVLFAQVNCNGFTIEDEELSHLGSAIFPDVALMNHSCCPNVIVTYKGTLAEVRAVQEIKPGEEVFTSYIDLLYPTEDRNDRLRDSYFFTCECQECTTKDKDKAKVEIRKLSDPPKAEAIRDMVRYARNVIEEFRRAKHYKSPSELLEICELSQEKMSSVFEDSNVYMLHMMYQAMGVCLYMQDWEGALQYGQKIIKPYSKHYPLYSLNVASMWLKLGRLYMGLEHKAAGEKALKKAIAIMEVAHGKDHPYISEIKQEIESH
UniProt P23497: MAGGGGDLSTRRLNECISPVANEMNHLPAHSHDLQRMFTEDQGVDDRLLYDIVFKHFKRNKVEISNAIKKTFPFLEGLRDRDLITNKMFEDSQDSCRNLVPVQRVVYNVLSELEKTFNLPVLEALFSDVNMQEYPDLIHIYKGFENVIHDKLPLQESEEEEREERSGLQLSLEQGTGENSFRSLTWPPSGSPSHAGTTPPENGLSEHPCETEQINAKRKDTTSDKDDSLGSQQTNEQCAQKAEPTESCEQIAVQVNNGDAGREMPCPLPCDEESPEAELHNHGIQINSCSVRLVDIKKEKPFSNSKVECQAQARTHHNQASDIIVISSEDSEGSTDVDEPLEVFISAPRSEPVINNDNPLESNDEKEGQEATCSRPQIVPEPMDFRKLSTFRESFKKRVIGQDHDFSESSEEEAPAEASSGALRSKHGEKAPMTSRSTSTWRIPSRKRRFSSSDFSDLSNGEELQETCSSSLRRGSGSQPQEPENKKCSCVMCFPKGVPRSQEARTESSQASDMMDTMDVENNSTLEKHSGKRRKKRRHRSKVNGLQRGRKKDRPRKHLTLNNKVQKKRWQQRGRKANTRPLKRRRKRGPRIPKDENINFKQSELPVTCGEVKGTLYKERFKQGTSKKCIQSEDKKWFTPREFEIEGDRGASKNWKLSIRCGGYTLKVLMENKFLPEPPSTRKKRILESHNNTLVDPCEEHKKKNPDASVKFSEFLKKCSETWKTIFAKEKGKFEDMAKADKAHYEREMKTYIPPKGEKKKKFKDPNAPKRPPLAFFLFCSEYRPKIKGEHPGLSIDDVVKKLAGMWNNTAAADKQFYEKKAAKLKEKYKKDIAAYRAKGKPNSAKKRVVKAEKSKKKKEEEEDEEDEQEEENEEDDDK
UniProt Q96RF0: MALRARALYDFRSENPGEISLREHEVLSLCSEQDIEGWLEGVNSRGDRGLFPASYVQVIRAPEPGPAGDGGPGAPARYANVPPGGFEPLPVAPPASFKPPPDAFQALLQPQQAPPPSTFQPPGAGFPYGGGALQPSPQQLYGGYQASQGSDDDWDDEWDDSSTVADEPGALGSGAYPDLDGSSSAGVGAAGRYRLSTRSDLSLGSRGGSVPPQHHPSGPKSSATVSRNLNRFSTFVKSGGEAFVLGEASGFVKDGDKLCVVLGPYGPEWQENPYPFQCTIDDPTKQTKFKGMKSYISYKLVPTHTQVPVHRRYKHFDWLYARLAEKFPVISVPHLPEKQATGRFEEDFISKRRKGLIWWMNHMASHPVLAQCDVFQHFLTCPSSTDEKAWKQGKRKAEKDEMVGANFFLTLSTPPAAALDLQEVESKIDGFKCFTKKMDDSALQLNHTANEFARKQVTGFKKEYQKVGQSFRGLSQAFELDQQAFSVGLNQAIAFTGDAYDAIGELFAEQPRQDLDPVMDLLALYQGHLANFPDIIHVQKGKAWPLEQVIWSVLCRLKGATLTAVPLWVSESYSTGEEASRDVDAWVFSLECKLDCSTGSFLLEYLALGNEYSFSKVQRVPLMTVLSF

The other results are listed elsewhere or left out.

Compound in the test: O=C(O)c1ccc2c(c1)nc(Nc1cccc(Cl)c1)c1ccncc12 [silmitasertib]
Nature of the test: log2 fold change, soluble protein after heating vs DMSO (PISA); higher = thermal stabilisation; K562 lysate, 10 uM; active = over 0.2 and 3.5 SD of the protein, either way, in both replicates (recomputed). In a few lines: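 Following dounce homogenisation of K562 pellets in PBS pH 7.4 with 1 mM MgCl2, crude extract at 1 mg/mL protein was incubated for 30 min with 10 μM compound. Aliquots were then heated for 3 min over 48°C-58°C and pooled, NP-40 was added to 0.5% at 4°C, and soluble protein was recovered as the supernatant at 21,000xg for 90 min. Channel-sum-equalised TMTpro 16plex LC-MS/MS quantified this protein. Each value, from duplicates, is a log-two fold change in thermal stability relative to solvent controls.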
Turning to SOX6 (UniProt P35712), the log2 fold change was inactive: 0.036. Regarding SMCR8 (UniProt Q8TEV9), the log2 fold change was inactive: 0.01.

For SMYD5 (UniProt Q6GMV2), the log2 fold change was inactive: -0.011. As to SNRPA1 (UniProt P09661), the log2 fold change is inactive: 0.023. Then SMU1 (UniProt Q2TAY7), with inactive: 0; and SOCS2 (UniProt O14508), with inactive: 0.041.

SMARCA5 (UniProt O60264): the log2 fold change is inactive: 0.072. Then SNRPF (UniProt P62306), with inactive: -0.001; and SNRPB2 (UniProt P08579), with inactive: -0.014. Turning to SNU13 (UniProt P55769), the log2 fold change was inactive: -0.016. Turning to SNRPN isoform 2 (UniProt P63162), the log2 fold change is inactive: -0.163. For SPAG7 (UniProt O75391), the log2 fold change was inactive: 0.017. The value for SNAP29 (UniProt O95721) was inactive: -0.032; that for SMYD3 (UniProt Q9H7B4) was inactive: 0.029; that for SNRNP40 (UniProt Q96DI7) was inactive: -0.012. Then SMTN isoform 6 (UniProt P53814), with inactive: -0.007; and SMC1B isoform 3 (UniProt Q8NDV3), with inactive: -0.011. The value for SOD2 (UniProt P04179) was inactive: -0.023; that for SNRK (UniProt Q9NRH2) was inactive: -0.095.

Take SNX11 (UniProt Q9Y5W9): the log2 fold change is inactive: 0.064. As to SOGA1 isoform 2 (UniProt O94964), the log2 fold change was inactive: 0.016. SNX1 (UniProt Q13596): the log2 fold change was inactive: 0.012. The value for SMARCA4 (UniProt P51532) was inactive: 0.021; that for SNTB2 (UniProt Q13425) was inactive: 0.083. The value for SMG7 (UniProt Q92540) was inactive: 0.027; that for SNRPC (UniProt P09234) was inactive: -0.046; that for SNX17 (UniProt Q15036) was inactive: 0.003.

SP1 (UniProt P08047): the log2 fold change was inactive: -0.045. For the target SNAP23 (UniProt O00161), the log2 fold change was inactive: -0.067. The value for SNX2 (UniProt O60749) was inactive: 0.007. Consider SND1 (UniProt Q7KZF4), for which the log2 fold change is inactive: 0.048. Then SMYD2 (UniProt Q9NRG4), with inactive: 0.021. The value for SMARCAD1 isoform 2 (UniProt Q9H4L7) was inactive: 0.012; that for SP100 isoform 4 (UniProt P23497) was inactive: 0.044.

Consider SMC3 (UniProt Q9UQE7), for which the log2 fold change was inactive: -0.009. For SNX18 isoform 2 (UniProt Q96RF0), the log2 fold change was inactive: -0.033. The value for SNCG (UniProt O76070) was inactive: -0.043; that for SMC4 (UniProt Q9NTJ3) was inactive: 0.011.
